Results published in the supplement of paper PMC10849652.
The other results are listed elsewhere or left out.

The chains behind the UniProt entries cited, without tags or fusion partners. Where a name states a change or a piece, a line headed by the entry shows the natural chain unless it says otherwise.
UniProt Q8N465: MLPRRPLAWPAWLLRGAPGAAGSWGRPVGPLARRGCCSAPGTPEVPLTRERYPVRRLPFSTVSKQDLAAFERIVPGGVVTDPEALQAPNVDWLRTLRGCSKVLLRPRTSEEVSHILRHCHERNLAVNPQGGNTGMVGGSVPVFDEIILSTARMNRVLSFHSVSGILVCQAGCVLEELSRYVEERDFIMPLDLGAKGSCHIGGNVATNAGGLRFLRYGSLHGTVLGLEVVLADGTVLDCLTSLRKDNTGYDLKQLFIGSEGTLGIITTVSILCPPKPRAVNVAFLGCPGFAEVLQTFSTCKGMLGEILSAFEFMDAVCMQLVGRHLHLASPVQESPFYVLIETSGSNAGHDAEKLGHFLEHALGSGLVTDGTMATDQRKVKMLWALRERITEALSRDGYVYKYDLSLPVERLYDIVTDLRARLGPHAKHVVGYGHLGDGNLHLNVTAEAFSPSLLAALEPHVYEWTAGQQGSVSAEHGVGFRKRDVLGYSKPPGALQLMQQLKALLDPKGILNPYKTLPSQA
UniProt Q9BTE1, whole entry, looked up: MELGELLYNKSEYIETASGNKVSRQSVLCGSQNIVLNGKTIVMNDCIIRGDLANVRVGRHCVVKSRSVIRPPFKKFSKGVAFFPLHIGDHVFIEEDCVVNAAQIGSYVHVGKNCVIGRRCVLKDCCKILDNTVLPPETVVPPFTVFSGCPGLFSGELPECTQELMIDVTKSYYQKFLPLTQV
UniProt Q5TAQ9: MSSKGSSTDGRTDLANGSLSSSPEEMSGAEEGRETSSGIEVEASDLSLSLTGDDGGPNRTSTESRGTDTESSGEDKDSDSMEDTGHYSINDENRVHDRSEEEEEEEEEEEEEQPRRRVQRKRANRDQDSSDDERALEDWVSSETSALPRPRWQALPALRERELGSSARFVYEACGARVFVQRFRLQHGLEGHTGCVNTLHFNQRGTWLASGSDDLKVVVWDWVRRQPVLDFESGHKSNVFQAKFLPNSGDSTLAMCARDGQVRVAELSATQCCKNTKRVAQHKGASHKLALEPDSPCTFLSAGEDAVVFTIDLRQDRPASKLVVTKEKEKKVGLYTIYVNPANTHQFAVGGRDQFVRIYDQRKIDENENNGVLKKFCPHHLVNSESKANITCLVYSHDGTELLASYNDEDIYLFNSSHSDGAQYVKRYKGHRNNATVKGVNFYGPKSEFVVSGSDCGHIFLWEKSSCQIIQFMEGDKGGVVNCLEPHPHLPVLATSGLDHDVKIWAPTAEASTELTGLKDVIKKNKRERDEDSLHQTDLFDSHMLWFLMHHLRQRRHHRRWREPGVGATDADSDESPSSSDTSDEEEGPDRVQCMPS
UniProt Q96C86: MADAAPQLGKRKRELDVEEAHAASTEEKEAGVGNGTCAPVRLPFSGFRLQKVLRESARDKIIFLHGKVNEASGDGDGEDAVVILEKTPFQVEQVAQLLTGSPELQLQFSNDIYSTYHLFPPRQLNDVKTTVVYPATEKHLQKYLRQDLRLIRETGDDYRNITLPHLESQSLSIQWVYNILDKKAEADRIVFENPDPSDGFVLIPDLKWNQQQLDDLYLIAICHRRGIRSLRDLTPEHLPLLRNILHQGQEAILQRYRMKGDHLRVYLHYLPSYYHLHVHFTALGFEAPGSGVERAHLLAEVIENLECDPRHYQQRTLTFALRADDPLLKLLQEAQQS
UniProt P30046: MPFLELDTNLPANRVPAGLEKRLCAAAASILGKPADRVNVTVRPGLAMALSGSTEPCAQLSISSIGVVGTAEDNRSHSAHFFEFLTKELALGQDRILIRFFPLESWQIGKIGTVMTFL
UniProt Q96GG9: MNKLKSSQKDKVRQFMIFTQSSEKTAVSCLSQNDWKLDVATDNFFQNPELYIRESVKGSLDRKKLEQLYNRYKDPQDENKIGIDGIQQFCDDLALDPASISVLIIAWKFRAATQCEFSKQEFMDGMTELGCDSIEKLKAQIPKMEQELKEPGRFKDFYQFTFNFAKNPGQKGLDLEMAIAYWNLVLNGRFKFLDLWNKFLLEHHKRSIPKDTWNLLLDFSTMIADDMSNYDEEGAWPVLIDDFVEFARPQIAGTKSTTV
UniProt Q9H8H2: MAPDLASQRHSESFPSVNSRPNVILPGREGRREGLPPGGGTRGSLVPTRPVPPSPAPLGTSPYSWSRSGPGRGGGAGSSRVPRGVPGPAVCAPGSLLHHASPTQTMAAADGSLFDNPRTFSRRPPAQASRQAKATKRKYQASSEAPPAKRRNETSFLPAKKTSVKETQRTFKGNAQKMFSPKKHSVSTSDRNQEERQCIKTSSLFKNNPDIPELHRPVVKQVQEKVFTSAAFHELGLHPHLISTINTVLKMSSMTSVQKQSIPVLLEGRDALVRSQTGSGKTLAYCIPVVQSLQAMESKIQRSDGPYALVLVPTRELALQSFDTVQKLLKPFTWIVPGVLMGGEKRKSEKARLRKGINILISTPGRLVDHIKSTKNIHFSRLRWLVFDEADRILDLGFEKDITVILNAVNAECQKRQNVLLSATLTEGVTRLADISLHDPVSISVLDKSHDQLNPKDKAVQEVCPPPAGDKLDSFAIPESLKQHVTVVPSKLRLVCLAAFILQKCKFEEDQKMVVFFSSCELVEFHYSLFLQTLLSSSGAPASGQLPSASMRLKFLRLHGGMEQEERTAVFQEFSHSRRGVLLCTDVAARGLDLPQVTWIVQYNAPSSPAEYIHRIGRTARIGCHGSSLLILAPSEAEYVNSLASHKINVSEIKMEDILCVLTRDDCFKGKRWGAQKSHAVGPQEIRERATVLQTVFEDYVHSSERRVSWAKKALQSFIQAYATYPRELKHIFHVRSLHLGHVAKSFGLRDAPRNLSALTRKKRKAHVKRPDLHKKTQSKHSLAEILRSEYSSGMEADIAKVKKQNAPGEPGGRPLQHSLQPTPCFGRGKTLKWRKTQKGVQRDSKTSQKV
UniProt Q9NY93: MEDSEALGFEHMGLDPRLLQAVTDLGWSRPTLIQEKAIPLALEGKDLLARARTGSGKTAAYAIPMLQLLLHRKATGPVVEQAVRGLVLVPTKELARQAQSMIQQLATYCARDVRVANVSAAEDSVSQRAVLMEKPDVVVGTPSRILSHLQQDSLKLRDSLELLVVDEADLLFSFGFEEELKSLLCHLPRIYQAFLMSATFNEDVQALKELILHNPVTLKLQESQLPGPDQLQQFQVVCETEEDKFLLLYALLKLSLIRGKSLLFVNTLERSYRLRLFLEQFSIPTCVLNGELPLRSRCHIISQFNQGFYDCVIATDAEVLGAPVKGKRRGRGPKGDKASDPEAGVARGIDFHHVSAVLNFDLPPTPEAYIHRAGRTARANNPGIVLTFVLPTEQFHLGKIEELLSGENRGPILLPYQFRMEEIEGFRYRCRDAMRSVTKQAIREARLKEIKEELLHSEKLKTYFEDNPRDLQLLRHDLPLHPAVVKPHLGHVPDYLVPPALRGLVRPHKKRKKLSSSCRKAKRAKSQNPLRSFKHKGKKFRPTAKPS
UniProt P14868: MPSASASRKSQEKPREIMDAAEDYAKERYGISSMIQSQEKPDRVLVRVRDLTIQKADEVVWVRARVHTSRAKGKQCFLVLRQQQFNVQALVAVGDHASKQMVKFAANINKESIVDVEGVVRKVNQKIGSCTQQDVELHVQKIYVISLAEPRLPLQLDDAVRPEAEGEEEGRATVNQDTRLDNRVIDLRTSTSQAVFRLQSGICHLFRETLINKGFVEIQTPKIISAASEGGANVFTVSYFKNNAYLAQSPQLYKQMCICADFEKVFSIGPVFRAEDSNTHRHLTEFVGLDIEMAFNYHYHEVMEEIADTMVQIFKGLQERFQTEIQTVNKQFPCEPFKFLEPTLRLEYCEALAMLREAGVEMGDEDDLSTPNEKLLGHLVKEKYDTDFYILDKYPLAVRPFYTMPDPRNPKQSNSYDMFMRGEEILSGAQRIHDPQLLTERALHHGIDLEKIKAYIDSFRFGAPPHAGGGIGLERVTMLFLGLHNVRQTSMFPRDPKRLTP
UniProt Q92499: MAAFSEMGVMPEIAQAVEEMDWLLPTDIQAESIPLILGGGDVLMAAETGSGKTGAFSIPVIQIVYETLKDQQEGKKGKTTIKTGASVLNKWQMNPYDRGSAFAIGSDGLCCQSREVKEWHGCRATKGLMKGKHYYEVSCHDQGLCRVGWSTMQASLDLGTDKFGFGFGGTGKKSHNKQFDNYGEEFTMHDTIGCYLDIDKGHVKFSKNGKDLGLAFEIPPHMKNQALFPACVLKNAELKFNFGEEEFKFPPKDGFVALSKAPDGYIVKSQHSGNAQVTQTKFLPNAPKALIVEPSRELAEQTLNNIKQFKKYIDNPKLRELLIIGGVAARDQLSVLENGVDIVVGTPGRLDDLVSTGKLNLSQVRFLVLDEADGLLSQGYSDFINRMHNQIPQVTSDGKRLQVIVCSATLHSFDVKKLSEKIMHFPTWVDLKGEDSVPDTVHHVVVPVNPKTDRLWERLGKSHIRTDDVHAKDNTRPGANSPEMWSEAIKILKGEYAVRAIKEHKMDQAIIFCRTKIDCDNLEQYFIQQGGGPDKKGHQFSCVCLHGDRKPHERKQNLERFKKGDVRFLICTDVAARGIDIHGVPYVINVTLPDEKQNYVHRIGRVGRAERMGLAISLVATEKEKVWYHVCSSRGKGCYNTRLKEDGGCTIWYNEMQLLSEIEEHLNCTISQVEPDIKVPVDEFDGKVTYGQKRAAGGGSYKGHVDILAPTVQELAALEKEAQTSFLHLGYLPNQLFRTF
UniProt P27707: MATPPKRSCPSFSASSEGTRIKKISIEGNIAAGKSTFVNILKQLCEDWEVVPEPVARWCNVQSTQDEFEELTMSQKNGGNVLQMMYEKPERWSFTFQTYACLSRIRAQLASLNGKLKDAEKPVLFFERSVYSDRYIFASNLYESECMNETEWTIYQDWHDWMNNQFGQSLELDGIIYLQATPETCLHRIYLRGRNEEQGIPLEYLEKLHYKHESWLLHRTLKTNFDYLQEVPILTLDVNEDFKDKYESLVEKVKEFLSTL
UniProt Q9Y6V7: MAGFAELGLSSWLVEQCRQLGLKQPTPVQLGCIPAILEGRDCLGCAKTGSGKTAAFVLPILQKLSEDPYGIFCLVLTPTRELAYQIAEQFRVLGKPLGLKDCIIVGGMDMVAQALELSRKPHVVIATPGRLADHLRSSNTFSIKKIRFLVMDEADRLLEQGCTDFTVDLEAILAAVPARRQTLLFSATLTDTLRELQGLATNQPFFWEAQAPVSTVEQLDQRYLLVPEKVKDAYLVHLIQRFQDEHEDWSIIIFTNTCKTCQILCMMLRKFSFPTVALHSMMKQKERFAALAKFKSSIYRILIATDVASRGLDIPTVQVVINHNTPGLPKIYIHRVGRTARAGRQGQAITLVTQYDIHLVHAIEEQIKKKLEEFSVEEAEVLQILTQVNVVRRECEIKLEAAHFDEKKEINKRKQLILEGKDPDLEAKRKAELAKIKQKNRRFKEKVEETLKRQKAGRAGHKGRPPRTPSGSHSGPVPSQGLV
UniProt Q8NCG7: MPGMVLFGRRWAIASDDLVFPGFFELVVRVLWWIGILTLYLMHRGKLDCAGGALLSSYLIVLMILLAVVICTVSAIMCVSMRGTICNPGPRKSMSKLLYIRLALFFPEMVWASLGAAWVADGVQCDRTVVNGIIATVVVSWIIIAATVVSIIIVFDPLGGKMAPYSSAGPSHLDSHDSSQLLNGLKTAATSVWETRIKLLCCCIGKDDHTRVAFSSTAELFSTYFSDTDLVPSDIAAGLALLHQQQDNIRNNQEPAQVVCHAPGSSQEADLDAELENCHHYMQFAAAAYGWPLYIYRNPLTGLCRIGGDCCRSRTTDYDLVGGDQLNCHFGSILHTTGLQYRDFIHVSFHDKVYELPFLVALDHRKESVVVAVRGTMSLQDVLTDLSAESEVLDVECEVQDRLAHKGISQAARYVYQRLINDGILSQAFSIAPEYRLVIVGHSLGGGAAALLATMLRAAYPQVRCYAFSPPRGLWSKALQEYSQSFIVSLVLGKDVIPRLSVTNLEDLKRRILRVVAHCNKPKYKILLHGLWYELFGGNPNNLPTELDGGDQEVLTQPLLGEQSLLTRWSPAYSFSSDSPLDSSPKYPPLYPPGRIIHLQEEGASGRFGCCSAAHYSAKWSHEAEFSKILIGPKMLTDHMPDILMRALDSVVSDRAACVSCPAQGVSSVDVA
UniProt P32321: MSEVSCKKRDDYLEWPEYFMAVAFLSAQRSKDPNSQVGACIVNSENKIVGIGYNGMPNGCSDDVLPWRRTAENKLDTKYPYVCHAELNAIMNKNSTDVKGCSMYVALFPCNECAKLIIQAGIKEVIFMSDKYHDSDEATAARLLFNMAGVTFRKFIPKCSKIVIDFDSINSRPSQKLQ
UniProt P07108: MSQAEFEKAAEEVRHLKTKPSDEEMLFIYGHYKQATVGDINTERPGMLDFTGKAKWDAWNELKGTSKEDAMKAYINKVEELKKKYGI

Assays:
Assay in all cases: log2 fold change, soluble protein after heating vs DMSO (PISA); higher = thermal stabilisation; K562 lysate, 10 uM; active = over 0.2 and 3.5 SD of the protein, either way, in both replicates (recomputed)
erlotinib = compound: C#Cc1cccc(Nc2ncnc3cc(OCCOC)c(OCCOC)cc23)c1 [erlotinib]
How it was run: (§1)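 K562 pellets were dounce-homogenised in PBS pH 7.4 with 1 mM MgCl2, and the crude extract at 1 mg/mL protein was treated with 10 μM compound for 30 min. Aliquots were heated for 3 min across 48°C-58°C, pooled, and brought to 0.5% NP-40 at 4°C; soluble protein was the supernatant after 21,000xg for 90 min. Soluble protein was quantified by TMTpro 16plex LC-MS/MS with channel sums equalised, and reported as log2 fold change in thermal stability against DMSO controls, with values from duplicates.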

[1] = compound: C/C(=N\NC(=O)C1=CC(=CC=C1)S(=O)(=O)N2CCOCC2)/C3=C(C=CC(=C3)Cl)O
How it was run: as §1

[2] = compound: C1=CC(=CC=C1C2=NC3=C(N2)C=C(C=C3)C(=O)N)OC4=CC=C(C=C4)Cl
How it was run: as §1

[3] = compound: C1=CC2=C(C=CC(=C2)/C=C\3/C(=O)NC(=NCC4=CC=CS4)S3)N=C1
How it was run: as §1

[4] = compound: C1=CC2=NC=CN=C2C=C1/C=C/3\C(=O)NC(=O)S3
How it was run: as §1

[5] = compound: C1=CC=C(C=C1)C2=NC(=C(N2)C3=CC=NC=C3)C4=CC(=C(C=C4)Cl)O
How it was run: as §1

[6] = compound: C1=CC=C2C(=C1)C3=NNC4=CC=CC(=C43)C2=O
How it was run: as §1

[7] = compound: C1CCN(C1)C(=O)NC2=CC=CC(=C2)NC3=NC=C(C(=N3)NCCC4=CN=CN4)Br
How it was run: as §1

[8] = compound: C1CN(CCC1(CC2=CC=C(C=C2)Cl)N)C3=NC=NC4=C3C=CN4
How it was run: as §1

IRAK-1-4 Inhibitor I = compound: C1COCCN1CCN2C3=CC=CC=C3N=C2NC(=O)C4=CC(=CC=C4)[N+](=O)[O-] [IRAK-1-4 Inhibitor I]
How it was run: as §1

ibrutinib = compound: C=CC(=O)N1CCC[C@@H](n2nc(-c3ccc(Oc4ccccc4)cc3)c3c(N)ncnc32)C1 [ibrutinib]
How it was run: as §1

[9] = compound: CC(=O)c1cnc2ccc(-c3cc(Cl)c(O)c(Cl)c3)nc2c1N[C@H]1CC[C@H](CN(C)C)CC1
How it was run: as §1

ralimetinib = compound: CC(C)(C)Cn1c(N)nc2ccc(-c3[nH]c(C(C)(C)C)nc3-c3ccc(F)cc3)nc21 [ralimetinib]
How it was run: as §1

[10] = compound: CC(C)(O)CC(=O)NCCn1ccc2ncnc(Nc3ccc(Oc4cccc(C(F)(F)F)c4)c(Cl)c3)c21
How it was run: as §1

[11] = compound: CC(C)C1=C2N=C(C=C(N2N=C1)NCC3=CC=CC=C3)NCCCCCCN
How it was run: as §1

[12] = compound: CC1=C(C(CC(=O)N1)C2=CC=C(C=C2)C(F)(F)F)C(=O)NC3=C(C=C4C(=C3)C=NN4)F
How it was run: as §1

[13] = compound: CC1=C(C2=C(C=C1)C(=O)C3=CC=CC=C3N2CCCN)C
How it was run: as §1

[14] = compound: CC1=C(C=C(C=C1)NC(=O)C2=CC(=CC=C2)C(C)(C)C#N)NC3=CC4=C(C=C3)N=CN(C4=O)C
How it was run: as §1

[15] = compound: CC1=C(C=C(C=C1)NC(=O)C2=CC(=CC=C2)N(C)C)NC(=O)C3=CC=C(C=C3)O
How it was run: as §1

[16] = compound: CC1=CC=C(C=C1)SC2=C3C=C(SC3=CN=C2)C(=O)N
How it was run: as §1

Measured: log2 fold change

D2HGDH (UniProt Q8N465)
inactive: erlotinib 0.034 | [1] 0.03 | [2] 0.061 | [3] -0.016 | [4] -0.009 | [5] 0.021 | [6] -0.079 | [7] -0.044 | [8] 0.071 | IRAK-1-4 Inhibitor I 0.06 | ibrutinib -0.055 | [9] -0.02 | ralimetinib -0.025 | [10] -0.009 | [11] 0.008 | [12] 0.03 | [13] -0.037 | [14] 0.057 | [15] -0.008 | [16] -0.045

DCTN5 (UniProt Q9BTE1)
inactive: erlotinib -0.013 | [1] 0.205 | [2] 0.035 | [3] 0.027 | [4] -0.045 | [5] 0.041 | [6] -0.046 | [7] 0.029 | [8] -0.142 | IRAK-1-4 Inhibitor I -0.011 | ibrutinib 0.102 | [9] 0.021 | ralimetinib -0.014 | [10] -0.086 | [11] -0.094 | [12] -0.011 | [13] -0.054 | [14] 0.007 | [15] -0.088 | [16] -0.013

DCAF8 (UniProt Q5TAQ9)
inactive: erlotinib -0.03 | [1] 0.05 | [2] 0.03 | [3] -0.016 | [4] -0.022 | [5] 0.047 | [6] 0.016 | [7] -0.038 | [8] 0.006 | IRAK-1-4 Inhibitor I -0.026 | ibrutinib 0.01 | [9] -0.025 | ralimetinib -0.08 | [10] 0.411 | [11] -0.017 | [12] -0.019 | [13] -0.049 | [14] 0.01 | [15] 0.008 | [16] -0.017

DCPS (UniProt Q96C86)
inactive: erlotinib -0.025 | [1] -0.018 | [2] 0.029 | [3] -0.016 | [4] -0.015 | [5] -0.008 | [6] -0.017 | [7] -0.029 | [8] 0.08 | IRAK-1-4 Inhibitor I 0.005 | ibrutinib 0 | [9] -0.01 | ralimetinib 0.005 | [10] -0.026 | [11] -0.02 | [12] -0.042 | [13] 0.012 | [14] 0.027 | [15] -0.013 | [16] -0.015

DDT (UniProt P30046)
inactive: erlotinib -0.004 | [1] 0.034 | [2] -0.005 | [3] 0.03 | [4] 0.009 | [5] -0.02 | [6] 0.018 | [7] 0.034 | [8] 0.107 | IRAK-1-4 Inhibitor I 0.024 | ibrutinib 0.073 | [9] -0.014 | ralimetinib 0.006 | [10] -0.034 | [11] 0.013 | [12] -0.013 | [13] 0.017 | [14] 0.071 | [15] -0.05 | [16] 0.031

DCUN1D1 (UniProt Q96GG9)
inactive: erlotinib -0.027 | [1] -0.01 | [2] -0.012 | [3] 0.013 | [4] 0.004 | [5] 0.005 | [6] 0.004 | [7] -0.002 | [8] 0.029 | IRAK-1-4 Inhibitor I -0.033 | ibrutinib 0.004 | [9] -0.001 | ralimetinib 0.009 | [10] 0.066 | [11] -0.006 | [12] -0.008 | [13] 0.054 | [14] 0.011 | [15] -0.002 | [16] -0.009

DDX31 (UniProt Q9H8H2)
inactive: erlotinib 0.155 | [1] -0.01 | [2] 0.104 | [3] 0.028 | [4] -0.023 | [5] 0.021 | [6] -0.047 | [7] -0.084 | [8] 0.135 | IRAK-1-4 Inhibitor I -0.013 | ibrutinib 0.045 | [9] -0.023 | ralimetinib -0.007 | [10] 0.019 | [11] -0.061 | [12] -0.012 | [13] 0.023 | [14] 0.034 | [15] 0.109 | [16] 0.001

DDX56 (UniProt Q9NY93)
inactive: erlotinib 0 | [1] -0.087 | [2] 0.073 | [3] -0.126 | [4] -0.036 | [5] 0.001 | [6] -0.016 | [7] -0.003 | [8] 0.068 | IRAK-1-4 Inhibitor I -0.048 | ibrutinib 0.035 | [9] -0.016 | ralimetinib 0.031 | [10] -0.01 | [11] 0 | [12] 0.02 | [13] 0.014 | [14] 0.044 | [15] 0.001 | [16] 0.009

DARS (UniProt P14868)
inactive: erlotinib 0.006 | [1] 0.037 | [2] -0.039 | [3] 0.027 | [4] 0.019 | [5] -0.004 | [6] -0.04 | [7] -0.012 | [8] -0.024 | IRAK-1-4 Inhibitor I -0.041 | ibrutinib 0.009 | [9] 0.021 | ralimetinib 0.049 | [10] 0.04 | [11] 0.001 | [12] -0.003 | [13] 0.027 | [14] -0.019 | [15] 0.026 | [16] 0.053

DDX1 (UniProt Q92499)
inactive: erlotinib 0.022 | [1] 0.038 | [2] 0.003 | [3] 0 | [4] 0.01 | [5] 0.02 | [6] -0.025 | [7] -0.007 | [8] -0.011 | IRAK-1-4 Inhibitor I 0.002 | ibrutinib 0.009 | [9] -0.004 | ralimetinib -0.001 | [10] 0.016 | [11] 0.022 | [12] -0.009 | [13] -0.025 | [14] 0.039 | [15] -0.008 | [16] 0.035

DCK (UniProt P27707)
inactive: erlotinib -0.019 | [1] 0.002 | [2] 0.01 | [3] -0.006 | [4] -0.041 | [5] -0.007 | [6] 0.015 | [7] -0.037 | [8] 0.033 | IRAK-1-4 Inhibitor I -0.004 | ibrutinib -0.002 | [9] 0.074 | ralimetinib -0.005 | [10] -0.004 | [11] 0.007 | [12] -0.039 | [13] -0.033 | [14] 0.064 | [15] 0.014 | [16] 0.002

DDX49 (UniProt Q9Y6V7)
inactive: erlotinib 0.011 | [1] -0.002 | [2] 0.056 | [3] 0.029 | [4] -0.05 | [5] 0.035 | [6] 0.014 | [7] 0.039 | [8] -0.019 | IRAK-1-4 Inhibitor I 0.01 | ibrutinib 0.009 | [9] -0.005 | ralimetinib -0.015 | [10] -0.036 | [11] 0.038 | [12] -0.046 | [13] -0.191 | [14] 0.099 | [15] 0.034 | [16] 0.022

DAGLB (UniProt Q8NCG7)
inactive: erlotinib -0.038 | [1] -0.038 | [2] -0.041 | [3] -0.017 | [4] -0.014 | [5] -0.004 | [6] -0.08 | [7] -0.023 | [8] -0.013 | IRAK-1-4 Inhibitor I 0.019 | ibrutinib -0.015 | [9] -0.011 | ralimetinib 0.009 | [10] -0.006 | [11] -0.015 | [12] 0 | [13] 0.036 | [14] -0.023 | [15] 0.015 | [16] 0.012

DCTD isoform 2 (UniProt P32321)
inactive: erlotinib -0.008 | [1] -0.027 | [2] -0.013 | [3] 0.003 | [4] 0.02 | [5] -0.008 | [6] -0.007 | [7] -0.004 | [8] -0.008 | IRAK-1-4 Inhibitor I 0.019 | ibrutinib -0.002 | [9] 0.017 | ralimetinib 0.01 | [10] 0.032 | [11] -0.014 | [12] -0.003 | [13] 0.011 | [14] 0.051 | [15] -0.011 | [16] 0

2 records picked at random from those above:
DCPS (UniProt Q96C86)
inactive: erlotinib -0.025 | [1] -0.018 | [2] 0.029 | [3] -0.016 | [4] -0.015 | [5] -0.008 | [6] -0.017 | [7] -0.029 | [8] 0.08 | IRAK-1-4 Inhibitor I 0.005 | ibrutinib 0 | [9] -0.01 | ralimetinib 0.005 | [10] -0.026 | [11] -0.02 | [12] -0.042 | [13] 0.012 | [14] 0.027 | [15] -0.013 | [16] -0.015

DCK (UniProt P27707)
inactive: erlotinib -0.019 | [1] 0.002 | [2] 0.01 | [3] -0.006 | [4] -0.041 | [5] -0.007 | [6] 0.015 | [7] -0.037 | [8] 0.033 | IRAK-1-4 Inhibitor I -0.004 | ibrutinib -0.002 | [9] 0.074 | ralimetinib -0.005 | [10] -0.004 | [11] 0.007 | [12] -0.039 | [13] -0.033 | [14] 0.064 | [15] 0.014 | [16] 0.002

(cont.)

DBI isoform 5 (UniProt P07108)
inactive: erlotinib 0.025 | [1] -0.02 | [2] 0.011 | [3] 0.065 | [4] -0.028 | [5] 0.006 | [6] -0.046 | [7] 0.025 | [8] 0.106 | IRAK-1-4 Inhibitor I 0.006 | ibrutinib 0.067 | [9] -0.021 | ralimetinib -0.02 | [10] -0.037 | [11] -0.005 | [12] -0.021 | [13] 0.015 | [14] 0.082 | [15] 0.033 | [16] 0.056

DDX24 (UniProt Q9GZR7)
inactive: erlotinib 0.048 | [1] -0.01 | [2] -0.015 | [3] 0.034 | [4] -0.013 | [5] 0.02 | [6] 0.03 | [7] 0.037 | [8] 0.015 | IRAK-1-4 Inhibitor I -0.04 | ibrutinib 0.003 | [9] -0.005 | ralimetinib 0.02 | [10] -0.01 | [11] 0.022 | [12] -0.016 | [13] -0.014 | [14] -0.008 | [15] 0.006 | [16] 0.02
